{"source": "patent US12622975B2", "about": "“Peptide-conjugated prodrugs” (priority 2019, dated 2026)", "origin": "cited, not measured here", "test_system": "E. coli K-12", "conditions": "E. coli K-12, literature values; cited from earlier work"}
{"smiles": "O=C(O)c1cn(C2CC2)c2cc(N3CCNCC3)c(F)cc2c1=O", "note": "[ciprofloxacin]", "values": [{"measurement": "MIC", "value": 0.01, "unit": "µg/mL"}]}
